Results from PubChem BioAssay AID188 (DTP/NCI, 2004).
Values are animals surviving of animals treated; these mice carried no tumour. Counts of survivors are from the toxicity check (mostly the fifth day) where no day follows; animals may have died later. Schedule codes are those of the source, taken here to give the interval after Q, in days (D) or hours (H), and the number of doses after X.

Test system: CD2F1 mice, nontumored, toxicity/survival
Test: NCI In Vivo Anticancer Drug Screen. Data for tumor model Nontumored Animals (Toxicity Test) in CD2F1 (CDF1) mice
Details: schedule: Q01DX009 (ip), vehicle: saline + alcohol

## C[C@]12CC[C@H](O)C[C@@]1(O)CC[C@@H]1[C@@H]2CC[C@]2(C)[C@@H](c3ccc(=O)oc3)C[C@H]3O[C@]132
dose: 0.1 mg/kg/injection
  survivor count: 2 of 2
dose: 1.0 mg/kg/injection
  survivor count: 2 of 2
dose: 10.0 mg/kg/injection
  survivor count: 2 of 2
dose: 50.0 mg/kg/injection
  survivor count: 0 of 2
dose: 100.0 mg/kg/injection
  survivor count: 0 of 2
